Measured data: PubChem BioAssay AID1159579 (Peter MacCallum Cancer Centre, 2015)
Assay: 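Retest candidate lymphatic endothelial migration regulators using several independent siRNAs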 (follow-up of hits). Cell system: human dermal lymphatic endothelial cells. Reagent: single siRNA against human genes, 25 nM. Measurement: 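High content images of wound closure area and cell nuclei counts, each the average of two wells, expressed against mock transfection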. Scale: migration relative to mock: higher = more migration into the scratch; mean nuclei count: higher = more cells remaining. Hit rule: 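a ratio of at most 0.6 or at least 1.3 marks altered migration and an active call; a mean nuclei count under 3300 forces an inactive call regardless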. Calls: active = migration changed (impaired or accelerated); inactive = no migration change, or too few cells.
Here is an unselected part of about 2,000 reagents tested. 549 of all reagents (27%) count as active. 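Some migration ratios are negative; siRNAs with too few cells are inactive whatever their migration ratio.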 The numbers tell different reagents against one gene apart. Not stated in the record: the time to read-out.

target | reagent no. | migration relative to mock | migration and cell number class | mean nuclei count | activity call
ROBO1 (roundabout guidance receptor 1) | 1 | 0.97 | no change in migration or cell number | 6616 | inactive
ROBO1 (roundabout guidance receptor 1) | 2 | 0.98 | no change in migration or cell number | 6376 | inactive
ROBO1 (roundabout guidance receptor 1) | 3 | 1.08 | no change in migration or cell number | 7551 | inactive
ROBO1 (roundabout guidance receptor 1) | 4 | 1.09 | no change in migration or cell number | 5152 | inactive
AOC3 (amine oxidase copper containing 3) | 1 | 0.28 | migration reduced | 4179 | active
AOC3 (amine oxidase copper containing 3) | 2 | 1.06 | no change in migration or cell number | 6255 | inactive
AOC3 (amine oxidase copper containing 3) | 3 | 0.44 | migration reduced | 6573 | active
AOC3 (amine oxidase copper containing 3) | 4 | 0.99 | no change in migration or cell number | 5867 | inactive
HPDL (4-hydroxyphenylpyruvate dioxygenase like) | 1 | 0.46 | migration reduced | 5437 | active
HPDL (4-hydroxyphenylpyruvate dioxygenase like) | 2 | 0.54 | migration reduced | 5350 | active
HPDL (4-hydroxyphenylpyruvate dioxygenase like) | 3 | 1.15 | no change in migration or cell number | 6089 | inactive
HPDL (4-hydroxyphenylpyruvate dioxygenase like) | 4 | 0.6 | migration reduced | 5376 | active
HIC1 (HIC ZBTB transcriptional repressor 1) | 1 | 0.69 | no change in migration or cell number | 7177 | inactive
HIC1 (HIC ZBTB transcriptional repressor 1) | 2 | 0.62 | no change in migration or cell number | 5851 | inactive
HIC1 (HIC ZBTB transcriptional repressor 1) | 3 | 0.3 | migration reduced | 5142 | active
HIC1 (HIC ZBTB transcriptional repressor 1) | 4 | 1.04 | no change in migration or cell number | 6121 | inactive
UHMK1 (U2AF homology motif kinase 1) | 1 | 0.64 | no change in migration or cell number | 5946 | inactive
UHMK1 (U2AF homology motif kinase 1) | 2 | 0.15 | migration reduced | 4814 | active
UHMK1 (U2AF homology motif kinase 1) | 3 | 0.52 | migration reduced | 5618 | active
UHMK1 (U2AF homology motif kinase 1) | 4 | 0.42 | migration reduced | 4875 | active
SEMA4C (semaphorin 4C) | 1 | 0.78 | no change in migration or cell number | 5885 | inactive
SEMA4C (semaphorin 4C) | 2 | 0.98 | no change in migration or cell number | 5658 | inactive
SEMA4C (semaphorin 4C) | 3 | 0.91 | no change in migration or cell number | 5191 | inactive
SEMA4C (semaphorin 4C) | 4 | 0.96 | no change in migration or cell number | 4759 | inactive
SELPLG (selectin P ligand) | 1 | 1.09 | no change in migration or cell number | 5894 | inactive
SELPLG (selectin P ligand) | 2 | 0.47 | migration reduced | 5192 | active
SELPLG (selectin P ligand) | 3 | 0.71 | no change in migration or cell number | 4972 | inactive
SELPLG (selectin P ligand) | 4 | 0.3 | migration reduced | 4112 | active
SERPINA4 (serpin family A member 4) | 1 | 0.58 | migration reduced | 5441 | active
SERPINA4 (serpin family A member 4) | 2 | 0.88 | no change in migration or cell number | 4764 | inactive
SERPINA4 (serpin family A member 4) | 3 | 0.71 | no change in migration or cell number | 5313 | inactive
SERPINA4 (serpin family A member 4) | 4 | 0.63 | no change in migration or cell number | 4668 | inactive
ELF4 (E74 like ETS transcription factor 4) | 1 | 0.9 | no change in migration or cell number | 6528 | inactive
ELF4 (E74 like ETS transcription factor 4) | 2 | -1 | too few cells; migration not scored | 2612 | inactive
ELF4 (E74 like ETS transcription factor 4) | 3 | 0.66 | no change in migration or cell number | 5642 | inactive
ELF4 (E74 like ETS transcription factor 4) | 4 | 0.64 | no change in migration or cell number | 6112 | inactive
TCAIM (T cell activation inhibitor, mitochondrial) | 1 | 0.54 | migration reduced | 3972 | active
TCAIM (T cell activation inhibitor, mitochondrial) | 2 | 0.94 | no change in migration or cell number | 5576 | inactive
TCAIM (T cell activation inhibitor, mitochondrial) | 3 | 1.13 | no change in migration or cell number | 5702 | inactive
TCAIM (T cell activation inhibitor, mitochondrial) | 4 | 0.98 | no change in migration or cell number | 4688 | inactive
KATNIP (katanin interacting protein) | 1 | 0.4 | migration reduced | 6072 | active
KATNIP (katanin interacting protein) | 2 | 0.51 | migration reduced | 4354 | active
KATNIP (katanin interacting protein) | 3 | 0.97 | no change in migration or cell number | 5333 | inactive
KATNIP (katanin interacting protein) | 4 | 1.07 | no change in migration or cell number | 5659 | inactive
LRRC57 (leucine rich repeat containing 57) | 1 | 0.43 | migration reduced | 5106 | active
LRRC57 (leucine rich repeat containing 57) | 2 | 0.05 | migration reduced | 4159 | active
LRRC57 (leucine rich repeat containing 57) | 3 | 0.66 | no change in migration or cell number | 4773 | inactive
LRRC57 (leucine rich repeat containing 57) | 4 | 0.53 | migration reduced | 4319 | active

No new results follow: entries from further up.
target | reagent no. | migration relative to mock | migration and cell number class | mean nuclei count | activity call
TCAIM (T cell activation inhibitor, mitochondrial) | 4 | 0.98 | no change in migration or cell number | 4688 | inactive
KATNIP (katanin interacting protein) | 1 | 0.4 | migration reduced | 6072 | active
KATNIP (katanin interacting protein) | 2 | 0.51 | migration reduced | 4354 | active
KATNIP (katanin interacting protein) | 3 | 0.97 | no change in migration or cell number | 5333 | inactive
KATNIP (katanin interacting protein) | 4 | 1.07 | no change in migration or cell number | 5659 | inactive
